For the test, the target named is Mlla HNH-APAZ (Myxococcus llanfairpwllgwyngyllgogerychwyrndrobwllllantysiliogogogochensis). The experiment in a line: SEC-MALS.

These are yes or no findings as the source states them, for the method shown. Binding calls can cover weak binding; strength is not graded here.

On to MllaAgo (from UniProt A0A540WXI1), for which the binding entry is listed as “binds”.

Values taken from doi:10.1101/2025.04.06.647449.
